Measured values taken from patent US20250011299A1, “PYRIDAZINYL AMINO DERIVATIVES AS ALK5 INHIBITORS” (CHIESI FARMACEUTICI S.P.A., priority 2021, published 2025).
Some entries share one result that the patent states for a list of compounds.

Target: T1, human ALK5 (Homo sapiens, UniProt P36897)
T1 construct: human ALK5 (recombinant TGF β1 N-term GST-tagged, 80-end); GST (N); purchased
T1 sequence (P36897 80-503 limits assumed): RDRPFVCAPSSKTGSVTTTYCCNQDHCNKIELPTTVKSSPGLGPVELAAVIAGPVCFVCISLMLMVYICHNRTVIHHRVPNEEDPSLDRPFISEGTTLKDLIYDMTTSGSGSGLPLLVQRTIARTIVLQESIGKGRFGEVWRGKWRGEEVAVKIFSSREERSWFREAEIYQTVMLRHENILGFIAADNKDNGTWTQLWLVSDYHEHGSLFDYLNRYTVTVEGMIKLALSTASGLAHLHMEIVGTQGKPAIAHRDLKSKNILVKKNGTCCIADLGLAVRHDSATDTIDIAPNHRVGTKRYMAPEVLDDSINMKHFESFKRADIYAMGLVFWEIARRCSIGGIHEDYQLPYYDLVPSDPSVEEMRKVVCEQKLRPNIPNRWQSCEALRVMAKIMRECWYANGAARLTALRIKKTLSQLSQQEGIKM
Experiment: ADP-GLO Kinases assay of ALK5 enzymatic activity
Type: biochemical
Conditions: purified recombinant human ALK5, TGFβ1 peptide substrate, pIC50 converted to pKi by Cheng-Prusoff, high ATP protocol (15 μM) for very potent compounds, 25° C.
Description: The enzymatic activity of compounds of the present invention was monitored measuring the formation of ADP using the ADP-GLO Kinases assay. Following the incubation of the purified enzyme, a substrate and ATP, the produced ADP was converted into ATP, which in turn was converted into light by Ultra-Glo Luciferase. The luminescent signal positively correlated with ADP amount and kinase activity. […] Compound and ALK5 kinase were mixed and incubated for 15 mins. […] After an incubation of 120 min, the reaction was stopped, and ADP production detected with ADP-Glo kit according to manufacturer's indications. […] After an incubation of 60 min, the kinase reaction was stopped, and ADP production detected with ADP-Glo kit according to manufacturer's indications. All reaction and incubation steps were performed at 25° C. and the assays were performed in 384-well format and validated using a selection of reference compounds tested in 11-point concentration-response curve. […] Results were expressed as pIC50 (negative logarithm of IC50) and subsequently converted to pKi (negative logarithm of […]) using the Cheng-Prusoff equation. The higher the value of pKi, the greater the inhibition of ALK5 activity.

| SMILES | ALK5 pKi |
| --- | --- |
| CN1CCN(C2CC(C(=O)Nc3cc(Nc4cc(-c5cc(Cl)ccc5F)nnc4OCC4CC(O)C4)ccn3)C2)CC1 (single isomer, unassigned) [Example 117, N-(4-{[6-(5-chloro-2-fluorophenyl)-3-[(3-hydroxycyclobutyl)methoxy]pyridazin-4-yl]amino}pyridin-2-yl)-3-(4-methylpiperazin-1-yl)cyclobutane-1-carboxamide] | ≥10 |
| CN1CCN(C2CC(C(=O)Nc3cc(Nc4cc(-c5cc(Cl)ccc5F)nnc4N(C)CCC(O)C(F)(F)F)ccn3)C2)CC1 (single isomer, unassigned) [Example 146, N-(4-{[6-(5-chloro-2-fluorophenyl)-3-[methyl(4,4,4-trifluoro-3-hydroxybutyl)amino]pyridazin-4-yl]amino}pyridin-2-yl)-3-(4-methylpiperazin-1-yl)cyclobutane-1-carboxamide] | ≥10 |
| CC(C)N1CCN(C2CC(C(=O)Nc3cc(Nc4cc(-c5cc(Cl)ccc5F)nnc4SCCO)ccn3)C2)CC1 (single isomer, unassigned) [Example 156, N-(4-{[6-(5-chloro-2-fluorophenyl)-3-[(2-hydroxyethyl)sulfanyl]pyridazin-4-yl]amino}pyridin-2-yl)-3-[4-(propan-2-yl)piperazin-1-yl]cyclobutane-1-carboxamide] | ≥10 |
| CN1CCCN(CC(=O)Nc2cc(Nc3cc(-c4cc(Cl)ccc4F)nnc3OCC3CC(O)C3)ccn2)CC1 (centres unmarked) [Example 121, N-(4-{[6-(5-chloro-2-fluorophenyl)-3-[(3-hydroxycyclobutyl)methoxy]pyridazin-4-yl]amino}pyridin-2-yl)-2-(4-methyl-1,4-diazepan-1-yl)acetamide] | ≥10 |

Next, values leading:

| ALK5 pKi | SMILES |
| --- | --- |
| ≥10 | CCN1CCN(C2CC(C(=O)Nc3cc(Nc4cc(-c5cc(Cl)ccc5F)nnc4SCCO)ccn3)C2)CC1 (single isomer, unassigned) [Example 158, N-(4-{[6-(5-chloro-2-fluorophenyl)-3-[(2-hydroxyethyl)sulfanyl]pyridazin-4-yl]amino}pyridin-2-yl)-3-(4-ethylpiperazin-1-yl)cyclobutane-1-carboxamide] |
| ≥10 | O=C(Nc1cc(Nc2cc(-c3cc(Cl)ccc3F)nnc2SCCO)ccn1)C1CC(N2CCC(F)(CO)CC2)C1 (single isomer, unassigned) [Example 161, N-(4-{[6-(5-chloro-2-fluorophenyl)-3-[(2-hydroxyethyl)sulfanyl]pyridazin-4-yl]amino}pyridin-2-yl)-3-[4-fluoro-4-(hydroxymethyl)piperidin-1-yl]cyclobutane-1-carboxamide] |
| ≥10 | COC1CCN(C2CC(C(=O)Nc3cc(Nc4cc(-c5cc(Cl)ccc5F)nnc4SCCO)ccn3)C2)CC1 (single isomer, unassigned) [Example 163, N-(4-{[6-(5-chloro-2-fluorophenyl)-3-[(2-hydroxyethyl)sulfanyl]pyridazin-4-yl]amino}pyridin-2-yl)-3-(4-methoxypiperidin-1-yl)cyclobutane-1-carboxamide] |
| 9.5-9.9 | CCOC(=O)C1CCN(C2CC(C(=O)Nc3cc(Nc4cc(-c5cc(Cl)ccc5F)nnc4SCCO)ccn3)C2)CC1 (single isomer, unassigned) [Example 165, ethyl 1-{3-[(4-{[6-(5-chloro-2-fluorophenyl)-3-[(2-hydroxyethyl)sulfanyl]pyridazin-4-yl]amino}pyridin-2-yl)carbamoyl]cyclobutyl}piperidine-4-carboxylate] |
| ≥10 | CCOC(=O)C1CCN(C2CC(C(=O)Nc3cc(Nc4cc(-c5cc(Cl)ccc5F)nnc4SCCO)ccn3)C2)CC1 (single isomer, unassigned) [Example 166, ethyl 1-{3-[(4-{[6-(5-chloro-2-fluorophenyl)-3-[(2-hydroxyethyl)sulfanyl]pyridazin-4-yl]amino}pyridin-2-yl)carbamoyl]cyclobutyl}piperidine-4-carboxylate] |
| ≥10 | CC1CCN(C2CC(C(=O)Nc3cc(Nc4cc(-c5cc(Cl)ccc5F)nnc4SCCO)ccn3)C2)CC1 (single isomer, unassigned) [Example 168, N-(4-{[6-(5-chloro-2-fluorophenyl)-3-[(2-hydroxyethyl)sulfanyl]pyridazin-4-yl]amino}pyridin-2-yl)-3-(4-methylpiperidin-1-yl)cyclobutane-1-carboxamide] |
| ≥10 | CN1CCN(C2CC(C(=O)Nc3cc(Nc4cc(-c5cc(Cl)ccc5F)nnc4SCCO)ccn3)C2)CC12CCC2 (single isomer, unassigned) [Example 173, N-(4-{[6-(5-chloro-2-fluorophenyl)-3-[(2-hydroxyethyl)sulfanyl]pyridazin-4-yl]amino}pyridin-2-yl)-3-{5-methyl-5,8-diazaspiro[3.5]nonan-8-yl}cyclobutane-1-carboxamide] |
